# Measurements as given in patent US6492491 (dated 2002).
# How the values were obtained:
# [1] = peptide synthesis; conditions: late stage modification step
# [2] = general procedure: peptide synthesis; HMP-resin; BOP, DIEA (solution-phase fragment couplings); conditions: tetrakis-trifluoroacetic acid salt
Substance,step yield ([1]; tetrakis-TFA salt),step yield ([1]; tetrakis-trifluoroacetic acid salt),"isolated mass ([2]; whole synthesis, scale 19.3 umol)",isolated yield ([2]; whole synthesis),step yield ([2]; coupling step)
"Cys-Thr-Gly-Hpu-His-Gly (SEQ ID NO: 3), Trifluoroacetic Acid Salt",22%,24%,5.2 mg,24%,
"CBZ-Cys(CBZ)-Thr(O-t-Bu)-Gly-Hpu(N7,N12-di-CBZ,O9-THP)-His(BOC)-Gly-O-t-Bu",,,,,81%
